Results are given in words; binding and its absence hold for the method and conditions named. Binding seen in cells or lysates may run through a third protein. Binding can be weak; no strength is given.
Assays:
[1] = target: T1, SPECC1L (human (endogenous in U2OS)) (UniProt Q69YQ0); assay: co-IP; U2OS cell lysate immunoprecipitated with anti-SPECC1L antibodies; western blot for E-cadherin
T1 sequence: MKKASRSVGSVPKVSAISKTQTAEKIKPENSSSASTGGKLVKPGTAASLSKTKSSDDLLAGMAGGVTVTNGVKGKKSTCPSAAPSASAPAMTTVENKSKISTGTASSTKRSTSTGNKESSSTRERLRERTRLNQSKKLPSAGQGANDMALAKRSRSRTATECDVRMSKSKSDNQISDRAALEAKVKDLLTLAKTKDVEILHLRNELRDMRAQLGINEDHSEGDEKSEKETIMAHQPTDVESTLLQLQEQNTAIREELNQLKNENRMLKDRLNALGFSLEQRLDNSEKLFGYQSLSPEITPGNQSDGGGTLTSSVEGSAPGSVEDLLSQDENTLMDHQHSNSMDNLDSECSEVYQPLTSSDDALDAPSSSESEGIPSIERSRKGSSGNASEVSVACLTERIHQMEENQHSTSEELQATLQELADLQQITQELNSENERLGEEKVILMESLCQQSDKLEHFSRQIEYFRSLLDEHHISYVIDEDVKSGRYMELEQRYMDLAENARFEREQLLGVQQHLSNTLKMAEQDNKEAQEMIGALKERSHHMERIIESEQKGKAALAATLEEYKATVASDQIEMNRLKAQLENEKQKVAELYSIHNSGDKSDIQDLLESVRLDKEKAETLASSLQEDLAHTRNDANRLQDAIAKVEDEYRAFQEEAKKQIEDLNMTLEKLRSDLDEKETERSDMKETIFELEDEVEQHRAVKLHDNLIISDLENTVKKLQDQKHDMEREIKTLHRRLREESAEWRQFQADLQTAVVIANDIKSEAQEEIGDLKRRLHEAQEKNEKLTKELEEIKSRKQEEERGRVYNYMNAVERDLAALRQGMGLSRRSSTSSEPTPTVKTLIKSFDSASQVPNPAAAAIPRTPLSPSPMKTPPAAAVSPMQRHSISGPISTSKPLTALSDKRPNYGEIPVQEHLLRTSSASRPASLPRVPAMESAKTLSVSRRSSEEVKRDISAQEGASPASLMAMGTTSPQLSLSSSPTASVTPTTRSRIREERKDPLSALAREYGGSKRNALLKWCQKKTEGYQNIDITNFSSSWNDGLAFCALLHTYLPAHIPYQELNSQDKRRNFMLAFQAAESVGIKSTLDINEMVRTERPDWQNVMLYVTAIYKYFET

[2] = target: T2, TWIST1 (mouse (endogenous in embryonic mid and hindbrain tissue)) (UniProt P26687); assay: co-IP; cytosolic fraction of protein extracted from mouse embryonic hindbrain tissue (E8.5-E9.0; methods say E8.5 and E9.5); cytoplasmic buffer 50 mM Tris-HCl pH 8, 137.5 mM NaCl, 0.05% Triton X-100, 10% glycerol, 5 mM EDTA; anti-TWIST1 antibodies, Protein A/G magnetic beads; western blot
T2 sequence: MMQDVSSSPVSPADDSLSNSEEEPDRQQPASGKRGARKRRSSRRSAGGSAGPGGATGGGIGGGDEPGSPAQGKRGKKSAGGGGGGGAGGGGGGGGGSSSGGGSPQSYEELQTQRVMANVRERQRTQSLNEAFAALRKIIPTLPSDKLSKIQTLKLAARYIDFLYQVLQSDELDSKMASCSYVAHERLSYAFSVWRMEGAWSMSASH

binding [1] | binding [2] | Substance
binds | – | E-cadherin (human (endogenous in U2OS))
– | binds | δ-catenin

Source: article PMC9440756
